Measurements reported in PubChem BioAssay AID1259405 (NCATS, 2018)

Aim: 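Silenced genes that increase secreted GFP made by CHO cells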 (primary screen)
Cells: Chinese hamster CHO-K1 ovary cells with stable secreted eGFP expression
Reagents: single siRNA against mouse genes, 0.8 pmol siRNA per well (2 µl of 400 nM stock)
Duration: 3 days
Measured: 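Percent of the per-plate non-targeting control median for intracellular GFP per well by laser scanning cytometry and for cell viability by ATP luminescence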
Direction: GFP, % of control: higher = more GFP per well, higher productivity; viability (ATP), % of control: higher = more viable cells (more ATP)
Call rule: 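Called active when intracellular GFP, relative to negative control, is at or above 120%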
In all, the deposit lists about 50,000 reagents; below is a random part of them. About 4,000 of them (8%) were called active. 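Mouse siRNA library applied to hamster cells; one well for each siRNA.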 Reagents against one gene are numbered here.

Ulk1 #1 gave GFP, % of control 121; viability (ATP), % of control 89.1; active.
Knock-down of Ulk1 #2 came out at: GFP, % of control 65.4; viability (ATP), % of control 67.6; inactive.
Against Ulk1 #3, the values are GFP, % of control 59.7; viability (ATP), % of control 68.4; inactive.
For Grem1 #1 the deposit lists GFP, % of control 90.9; viability (ATP), % of control 83.6; inactive.
For Grem1 #2 the deposit lists GFP, % of control 111; viability (ATP), % of control 96.4; inactive.
Silencing of Grem1 #3 gave: GFP, % of control 134; viability (ATP), % of control 68.8; active.
Knock-down of Bmpr1a came out at: GFP, % of control 73.4; viability (ATP), % of control 73.5; inactive.
Gpr87 #1 gave GFP, % of control 82.3; viability (ATP), % of control 76.5; inactive.
Silencing of Gpr87 #2 resulted in: GFP, % of control 62.3; viability (ATP), % of control 73; inactive.
Knock-down of Gpr87 #3 came out at: GFP, % of control 64.5; viability (ATP), % of control 74.5; inactive.
Depletion of Me2 #1 came out at: GFP, % of control 62.4; viability (ATP), % of control 71; inactive.
Me2 #2 gave GFP, % of control 64.8; viability (ATP), % of control 74.3; inactive.
With knock-down of Me2 #3, the screen gave GFP, % of control 85.4; viability (ATP), % of control 94.5; inactive.
Silencing of Nr1d1 #1 resulted in: GFP, % of control 87.8; viability (ATP), % of control 86.6; inactive.
With knock-down of Nr1d1 #2, the record shows GFP, % of control 53.7; viability (ATP), % of control 57.9; inactive.
Runx1t1 #1 showed GFP, % of control 92.3; viability (ATP), % of control 144; inactive.
Runx1t1 #2 showed GFP, % of control 101; viability (ATP), % of control 106; inactive.
Against Runx1t1 #3, the values are GFP, % of control 70.7; viability (ATP), % of control 68.2; inactive.
Or10g3b #1 gave GFP, % of control 35.2; viability (ATP), % of control 30.8; inactive.
For Or10g3b #2, the entry reads GFP, % of control 85; viability (ATP), % of control 93.6; inactive.
After knock-down of Or10g3b #3, the screen gave GFP, % of control 58.4; viability (ATP), % of control 55.7; inactive.
Zfp758 #1 gave GFP, % of control 60.7; viability (ATP), % of control 72.9; inactive.
Depletion of Zfp758 #2 gave: GFP, % of control 66.4; viability (ATP), % of control 52.3; inactive.
For Zfp758 #3, the entry reads GFP, % of control 84; viability (ATP), % of control 84.5; inactive.
After knock-down of A330041J22Rik #1, the screen gave GFP, % of control 125; viability (ATP), % of control 67; active.
For A330041J22Rik #2, the values are GFP, % of control 66.8; viability (ATP), % of control 55.4; inactive.
A330041J22Rik #3 showed GFP, % of control 73.2; viability (ATP), % of control 85.6; inactive.
After knock-down of Gabre #1, the screen gave GFP, % of control 63.7; viability (ATP), % of control 75.2; inactive.
Gabre #2 gave GFP, % of control 67.1; viability (ATP), % of control 57.9; inactive.
For Gabre #3, the values are GFP, % of control 78.2; viability (ATP), % of control 68.2; inactive.
After knock-down of Mief1 #1, the screen gave GFP, % of control 69.5; viability (ATP), % of control 83.7; inactive.
Mief1 #2 gave GFP, % of control 87.6; viability (ATP), % of control 133; inactive.
With knock-down of Mief1 #3 the results were GFP, % of control 81.3; viability (ATP), % of control 72; inactive.
With knock-down of Spred1 #1 the results were GFP, % of control 89.2; viability (ATP), % of control 83.6; inactive.
Spred1 #2 showed GFP, % of control 101; viability (ATP), % of control 80.2; inactive.
After knock-down of Spred1 #3, the screen gave GFP, % of control 48.2; viability (ATP), % of control 50.9; inactive.
Kyat3 #1 showed GFP, % of control 61.9; viability (ATP), % of control 56.3; inactive.
After knock-down of Kyat3 #2, the record shows GFP, % of control 72.2; viability (ATP), % of control 97.6; inactive.
Against Kyat3 #3, the entry reads GFP, % of control 74.1; viability (ATP), % of control 56.4; inactive.
Lcorl #1 showed GFP, % of control 89.8; viability (ATP), % of control 80.7; inactive.
With knock-down of Lcorl #2, the screen gave GFP, % of control 65.7; viability (ATP), % of control 72.1; inactive.
With knock-down of Lcorl #3, the screen gave GFP, % of control 76.5; viability (ATP), % of control 81.1; inactive.
Against Pomt1 #1 the deposit lists GFP, % of control 81.8; viability (ATP), % of control 121; inactive.
Silencing of Pomt1 #2 resulted in: GFP, % of control 104; viability (ATP), % of control 107; inactive.
Pomt1 #3 scored GFP, % of control 91.9; viability (ATP), % of control 93.4; inactive.
Actrt2 #1 gave GFP, % of control 77; viability (ATP), % of control 72.4; inactive.
For Actrt2 #2, the entry reads GFP, % of control 66.3; viability (ATP), % of control 84; inactive.
Mpzl2 #1 scored GFP, % of control 60.6; viability (ATP), % of control 71.6; inactive.
Knock-down of Mpzl2 #2 gave: GFP, % of control 101; viability (ATP), % of control 80.8; inactive.
After knock-down of Rfc2 #1 the results were GFP, % of control 52.3; viability (ATP), % of control 41.5; inactive.
Against Rfc2 #2, the values are GFP, % of control 67.1; viability (ATP), % of control 89.3; inactive.
For Rfc2 #3, the values are GFP, % of control 58.5; viability (ATP), % of control 68; inactive.
